Results are given in words; binding and its absence hold for the method and conditions named. Some results given as binding are weak or reduced against the parent protein; the word gives no strength. For some assays here: Sequences can lack the tags named with a protein.
What was measured:
[1] = target: H14-ZZ-bdSUMO-tagged mouse Xpo4 (mouse) (UniProt Q9ESJ0); assay: pull-down; 1 µM H14-ZZ-bdSUMO-tagged NTR with 2 µM human or yeast eIF5A in the presence of 2 µM RanGTP; retrieved via the tagged NTR by anti-Protein A beads, eluted by bdSENP1 protease, SDS-PAGE and Coomassie; both purified
[2] = target: T1, H14-ZZ-bdSUMO-tagged Pdr6 (S. cerevisiae) (UniProt P32767); assay: as above
T1 sequence: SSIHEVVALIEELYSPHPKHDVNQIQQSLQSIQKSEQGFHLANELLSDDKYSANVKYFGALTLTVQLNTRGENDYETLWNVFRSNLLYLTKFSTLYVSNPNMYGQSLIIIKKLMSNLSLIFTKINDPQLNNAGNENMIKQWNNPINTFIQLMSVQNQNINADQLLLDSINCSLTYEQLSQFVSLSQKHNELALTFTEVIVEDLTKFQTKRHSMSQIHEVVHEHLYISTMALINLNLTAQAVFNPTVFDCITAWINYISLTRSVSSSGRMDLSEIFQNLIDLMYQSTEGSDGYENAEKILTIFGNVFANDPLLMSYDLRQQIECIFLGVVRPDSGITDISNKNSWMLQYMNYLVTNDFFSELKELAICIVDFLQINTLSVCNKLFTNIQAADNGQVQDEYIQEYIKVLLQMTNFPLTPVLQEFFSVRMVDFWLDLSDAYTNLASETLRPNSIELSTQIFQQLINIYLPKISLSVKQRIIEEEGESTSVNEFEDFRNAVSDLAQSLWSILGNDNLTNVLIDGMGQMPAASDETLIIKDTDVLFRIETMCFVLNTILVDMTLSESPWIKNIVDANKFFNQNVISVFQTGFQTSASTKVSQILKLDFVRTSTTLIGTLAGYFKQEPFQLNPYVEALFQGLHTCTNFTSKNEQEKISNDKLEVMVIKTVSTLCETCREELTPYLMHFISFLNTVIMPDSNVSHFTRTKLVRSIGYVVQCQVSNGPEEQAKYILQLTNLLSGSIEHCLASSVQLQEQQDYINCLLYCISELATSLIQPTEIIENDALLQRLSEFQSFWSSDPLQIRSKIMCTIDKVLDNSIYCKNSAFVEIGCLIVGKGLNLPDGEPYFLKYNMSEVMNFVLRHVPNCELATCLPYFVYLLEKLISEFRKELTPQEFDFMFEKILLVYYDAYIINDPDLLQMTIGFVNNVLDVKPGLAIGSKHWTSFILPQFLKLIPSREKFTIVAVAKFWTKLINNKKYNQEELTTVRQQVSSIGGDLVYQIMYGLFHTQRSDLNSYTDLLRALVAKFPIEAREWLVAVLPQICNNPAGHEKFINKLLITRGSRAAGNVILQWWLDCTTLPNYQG

The chains behind the UniProt entries cited, without tags or fusion partners. Residues count along the entry.
UniProt Q9ESJ0: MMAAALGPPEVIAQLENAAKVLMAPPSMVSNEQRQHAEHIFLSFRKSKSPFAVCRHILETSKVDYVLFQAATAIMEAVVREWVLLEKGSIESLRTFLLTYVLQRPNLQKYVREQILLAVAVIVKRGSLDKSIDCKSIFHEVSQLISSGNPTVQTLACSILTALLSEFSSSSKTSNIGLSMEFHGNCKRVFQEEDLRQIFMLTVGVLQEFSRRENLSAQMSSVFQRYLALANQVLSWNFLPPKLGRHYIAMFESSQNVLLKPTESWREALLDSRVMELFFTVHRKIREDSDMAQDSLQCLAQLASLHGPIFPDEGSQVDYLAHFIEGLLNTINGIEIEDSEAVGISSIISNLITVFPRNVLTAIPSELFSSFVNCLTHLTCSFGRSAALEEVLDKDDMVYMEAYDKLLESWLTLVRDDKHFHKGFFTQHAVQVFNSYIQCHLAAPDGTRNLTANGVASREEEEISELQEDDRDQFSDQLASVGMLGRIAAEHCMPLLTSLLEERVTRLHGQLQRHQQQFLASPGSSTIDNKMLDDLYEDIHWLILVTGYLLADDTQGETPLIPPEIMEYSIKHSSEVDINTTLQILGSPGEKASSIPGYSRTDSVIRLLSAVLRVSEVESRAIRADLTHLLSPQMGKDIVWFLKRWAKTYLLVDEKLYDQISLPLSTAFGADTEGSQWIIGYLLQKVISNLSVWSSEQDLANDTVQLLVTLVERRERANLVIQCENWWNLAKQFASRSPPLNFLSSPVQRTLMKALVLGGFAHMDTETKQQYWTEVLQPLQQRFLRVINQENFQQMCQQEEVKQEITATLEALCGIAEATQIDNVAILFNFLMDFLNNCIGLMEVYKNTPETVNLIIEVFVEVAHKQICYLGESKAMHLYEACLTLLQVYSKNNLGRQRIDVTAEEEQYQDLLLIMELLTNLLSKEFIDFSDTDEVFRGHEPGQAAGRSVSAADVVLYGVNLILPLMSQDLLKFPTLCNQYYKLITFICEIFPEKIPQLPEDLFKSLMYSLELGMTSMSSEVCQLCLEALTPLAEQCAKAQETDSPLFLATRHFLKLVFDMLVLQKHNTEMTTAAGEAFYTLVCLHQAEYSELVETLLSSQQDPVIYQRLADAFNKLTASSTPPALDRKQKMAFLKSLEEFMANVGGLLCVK
UniProt P63241, residues 15-154: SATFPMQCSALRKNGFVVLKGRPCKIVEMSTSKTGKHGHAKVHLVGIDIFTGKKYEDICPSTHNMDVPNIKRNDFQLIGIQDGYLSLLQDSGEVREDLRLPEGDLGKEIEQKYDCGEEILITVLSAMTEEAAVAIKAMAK

- binding [1]: binds
- binding [2]: binds
Substance: human eIF5A (from UniProt P63241 15-154)
